The target of assay [1] is transient receptor potential ankyrin-1 (TRPA1), endogenous in HCC-515 cells (human (endogenous in HCC-515)) (UniProt O75762). The experiment in a line: proximity ligation; Duolink PLA in fixed HCC-515 cells with antibodies against endogenous FGFR2 and TRPA1.
Assay [2] has the same target. The experiment in a line: co-IP; HCC-515 lysate, IP with anti-TRPA1, IB for FGFR2; cells non-stimulated or stimulated with FGF9 and/or AITC.
Assay [3] concerns the target FGFR2, Strep-tagged and FLAG-tagged copies co-transfected (UniProt P21802). The experiment in a line: proximity ligation; Duolink PLA in HEK 293T cells with antibodies against Strep-tagged and FLAG-tagged FGFR2, with or without TRPA1-GFP.
For assay [4], the target named is T1, GST fusion of FGFR2 residues 764-821 with P804A (C4) (UniProt P21802).
T1 sequence: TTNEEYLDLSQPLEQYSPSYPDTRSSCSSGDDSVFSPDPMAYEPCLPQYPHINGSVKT
The experiment in a line: pull-down; GST constructs on glutathione-sepharose beads incubated with lysate of HEK 293T cells transfected with TRPA1; western blot; only the target purified. In general terms: A western blot detects proteins with antibodies after separation by electrophoresis.

Amino acid sequences for entries named in this document (tags omitted).
UniProt O75762: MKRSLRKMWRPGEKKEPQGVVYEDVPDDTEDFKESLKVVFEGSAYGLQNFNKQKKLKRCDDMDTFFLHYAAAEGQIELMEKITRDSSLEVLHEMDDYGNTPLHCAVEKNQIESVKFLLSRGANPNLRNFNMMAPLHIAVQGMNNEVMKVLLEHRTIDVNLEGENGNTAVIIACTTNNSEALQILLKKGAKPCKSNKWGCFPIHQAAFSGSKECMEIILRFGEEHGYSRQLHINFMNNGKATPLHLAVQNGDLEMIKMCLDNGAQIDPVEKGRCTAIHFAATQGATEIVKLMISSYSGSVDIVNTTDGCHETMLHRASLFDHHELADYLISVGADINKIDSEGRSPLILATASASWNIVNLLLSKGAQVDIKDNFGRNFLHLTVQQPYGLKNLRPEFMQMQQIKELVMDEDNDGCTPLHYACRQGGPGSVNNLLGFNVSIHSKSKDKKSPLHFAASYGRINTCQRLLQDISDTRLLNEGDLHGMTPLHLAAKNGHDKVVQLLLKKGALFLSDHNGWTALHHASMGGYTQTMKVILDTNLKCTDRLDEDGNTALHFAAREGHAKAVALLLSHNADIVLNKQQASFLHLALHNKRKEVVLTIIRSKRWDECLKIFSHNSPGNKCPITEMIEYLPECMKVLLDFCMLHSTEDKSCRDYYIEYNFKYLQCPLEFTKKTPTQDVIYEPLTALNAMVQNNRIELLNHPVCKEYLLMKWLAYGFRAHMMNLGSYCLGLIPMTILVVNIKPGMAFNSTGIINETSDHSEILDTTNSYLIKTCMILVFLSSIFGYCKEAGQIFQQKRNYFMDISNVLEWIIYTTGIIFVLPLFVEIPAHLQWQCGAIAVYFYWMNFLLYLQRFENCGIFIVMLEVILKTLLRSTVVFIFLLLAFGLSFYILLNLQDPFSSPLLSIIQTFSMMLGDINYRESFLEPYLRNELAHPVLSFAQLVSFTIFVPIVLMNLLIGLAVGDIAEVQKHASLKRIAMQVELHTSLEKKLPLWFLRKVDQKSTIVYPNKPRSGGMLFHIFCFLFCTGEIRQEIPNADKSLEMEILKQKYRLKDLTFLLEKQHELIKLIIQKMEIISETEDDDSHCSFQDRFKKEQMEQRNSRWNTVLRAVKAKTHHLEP

In assay [5] the target is T2, GST fusion of the last 58 amino acids of FGFR2 (residues 764-821), wild-type construct (C) (UniProt P21802).
T2 sequence: T1 sequence with A41P
The description is as above.

For assay [6], the target named is full-length GFP-tagged TRPA1 (TRPA1-GFP) (UniProt O75762). The experiment in a line: co-IP; HEK 293T cells co-transfected with TRPA1-GFP and FGFR2 (FL or ΔE); IP and IB with the indicated antibodies.

Positions count from the first letter of the chain named. Results are given in words; binding and its absence hold for the method and conditions named. Binding seen in cells or lysates may run through a third protein. Some entries that bind do so weakly or less than the wild type. For part of these data: Sequences can lack the tags named with a protein.

In the case of “fibroblast growth factor receptor 2 (FGFR2), endogenous in HCC-515 cells (from UniProt P21802 22-821)”, the binding entry in assay [1] and in assay [2] was “binds” each time.

As to “FGFR2, Strep-tagged and FLAG-tagged copies co-transfected (from UniProt P21802 22-821) (receptor)”, in assay [3], the binding entry is listed as “binds”.

As to “full-length GFP-tagged TRPA1 (TRPA1-GFP) (from UniProt O75762 1-1119)”, the binding entry in assay [4] and in assay [5] was “binds” in each case.

On to “full-length FGFR2 (FL), transfected (from UniProt P21802 22-821) (receptor)”, for which the binding entry in assay [6] is “binds”.

(Values after PMC5643494, “TRPA1–FGFR2 binding event is a regulatory oncogenic driver modulated by miRNA-142-3p” (Nature Communications, 2017).)
